Patent publication US10758513B2, “Modulators of mitochondrial protein import” (THE REGENTS OF THE UNIVERSITY OF CALIFORNIA, priority 2011, dated 2020)
For at least one compound, name, drawing or mass did not settle the structure.

Chains of the proteins cited; added tags and fusions are not shown. Residues count along the entry.
UniProt Q00711, 29-640: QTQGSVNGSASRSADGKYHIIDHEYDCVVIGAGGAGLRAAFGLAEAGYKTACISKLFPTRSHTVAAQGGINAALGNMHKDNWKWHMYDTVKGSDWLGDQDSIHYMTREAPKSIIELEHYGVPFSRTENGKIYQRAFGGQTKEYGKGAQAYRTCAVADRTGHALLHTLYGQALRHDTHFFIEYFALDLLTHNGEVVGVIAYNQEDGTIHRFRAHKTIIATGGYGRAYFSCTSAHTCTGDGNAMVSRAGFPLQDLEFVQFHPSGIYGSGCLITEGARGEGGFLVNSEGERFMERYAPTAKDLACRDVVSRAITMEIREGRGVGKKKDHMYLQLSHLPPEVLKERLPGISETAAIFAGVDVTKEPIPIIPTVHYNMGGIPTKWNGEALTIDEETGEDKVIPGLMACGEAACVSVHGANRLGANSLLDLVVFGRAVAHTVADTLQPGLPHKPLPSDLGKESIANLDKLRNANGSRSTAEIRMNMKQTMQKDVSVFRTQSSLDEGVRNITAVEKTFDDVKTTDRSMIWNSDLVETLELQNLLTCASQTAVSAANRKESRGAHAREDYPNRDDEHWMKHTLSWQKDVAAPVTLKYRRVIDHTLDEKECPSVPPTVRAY

What was measured:
↑Erv1 mitochondria = test: Import of radiolabeled precursors into mitochondria overexpressing Erv1; type: biochemical, yeast
succinate dehydrogenase = biological target: T1, succinate dehydrogenase (Saccharomyces cerevisiae, UniProt Q00711); test: Succinate dehydrogenase activity in WT mitochondria (oxygen electrode); type: biochemical, yeast; conditions: 25 or 50 μM MitoBloCK-6; 20 mM malonate control
T1 construct: endogenous in cells; host or cells: mitochondria isolated from WT yeast
Method: (A) 160 μM insulin was reacted with 3 units of PDI in the presence of buffer, 1 mM bacitracin, or MitoBloCK-6 (MB-6). Reduction of insulin chains was initiated by the addition of DTT. The samples were incubated for 30 min at room temperature and then the turbidity was measured at a wavelength of 630 nm using a Bio-Tek plate-reader. (B) Succinate dehydrogenase activity was measured in WT mitochondria using a Clark-type oxygen electrode. Respiration was initiated with 10 mM succinate and, when steady-state respiration was established, 25 or 50 μM MitoBloCK-6, 50 μM ES-1, 50 μM ES-2, or 1% DMSO was added. Controls included 20 mM malonate that inhibits succinate dehydrogenase activity and CCCP that uncouples electron transport. The rate is reported as nmol O2 consumed/sec.
Oxygen consumption of WT mitochondria was measured using methods previously described (Claypool et al., 2008a). Briefly, purified WT mitochondria (25 mg/ml) were thawed on ice and tested within 2 hours. […] Consumption rate was monitored for approximately 2 min. MitoBloCK-6 or DMSO was then added to a final vehicle concentration of 1% and respiration was measured for another approximately 1.5 min. […] Consumption rate was monitored for approximately 3 mins. MitoBloCK-6, SAR compounds, or DMSO was then added and respiration measured for another 3 mins. […]

HSF1 hESCs = test: Assays in human embryonic stem cells (HSF1); type: cell-based; conditions: 20 μM, 16 hr
Method: Human embryonic stem cell (hESCs) line hSF1 was cultured in Stem Pro SFM (Gibco) supplemented with 10 ng/ml bFGF on Matrigel (BD Biosciences) coated plates under 5% CO2, 95% air. Differentiation involved culturing cells in Stem Pro SFM with 10 μM retinoic acid (Acros Organics) for 4 days. Cells were treated with the specific concentration of the compounds or 1% DMSO as a control. For the induction of apoptosis, cells were exposed to 20 μM actinomycin D (Sigma) with or without 100 μM z-VAD-FMK (MP Biomedical). Following treatment, cells were fixed with 3.7% formaldehyde for indirect immunofluorescence study or lysed with Triton buffer (25 mM Tris-HCl pH 7.5, 150 mM NaCl, 1% Triton X-100, 1 mM EDTA) for analysis by SDS-PAGE. Bright field images were acquired with Exi Blue (QImaging). Immunofluorescent images were acquired with a 63× oil immersion objective on an LSM 5 PASCAL Laser Scanning Microscope (Carl Zeiss). Antibodies against cyt c (BD Pharmingen), Tom20 (Santa Cruz), cleaved caspase-3 (Cell Signaling) and poly (ADP-ribose) polymerase (Cell Signaling) were purchased from the indicated vendors. Alkaline phosphatase activity staining was performed with the leukocyte alkaline phosphatase kit (Sigma) as per manufacturer's protocol. […]

Oc1c(Cl)cc(Cl)cc1/C=N/c1ccc(Nc2ccccc2)cc1 [MitoBloCK-6]
concentration required to inhibit import of AAC (↑Erv1 mitochondria): 30 µM
concentration required to inhibit import of Cmc1 (↑Erv1 mitochondria): 50 µM
concentration required to inhibit import of Mia40 (↑Erv1 mitochondria): 50 µM
succinate dehydrogenase activity (oxygen consumption rate with succinate) (succinate dehydrogenase): did not alter the oxygen consumption rate
hESC survival (HSF1 hESCs): marked HSF1 cell death
